According to paper PMC8262591 (Brain research bulletin, 2020):
Where a name gives a salt, the structure may show the parent alone.

Test system: brain CYP2D
Conditions: propafenone i.c.v. pretreatment vs vehicle

In the case of `CCCNCC(O)COc1ccccc1C(=O)CCc1ccccc1` (centres unmarked) [propafenone, Propafenone hydrochloride], the “animals with increased tramadol analgesia at 30 min during microdialysis” value (p=0.09) is reported as 5 of 6 and the “animals with increase in analgesia AUC from 0–60 min after oral tramadol” value (within-animal) is reported as 10/11.
